Source: PMC5466598 (Scientific Reports, 2017)
Strings that start with PEPTIDE1 are HELM notation: dots part the residues, brackets hold end groups and non-standard residues.

Assay: peptide synthesis
Conditions: conjugation step, TFA salt

PEPTIDE1{[FITC5].[PEG4].E.[PEG2trz]}|PEPTIDE2{R.G.D.[dF].K}|PEPTIDE3{R.G.D.[dF].K}|PEPTIDE4{[PEG2trz]}$PEPTIDE2,PEPTIDE2,1:R1-5:R2|PEPTIDE3,PEPTIDE3,1:R1-5:R2|PEPTIDE1,PEPTIDE2,4:R2-5:R3|PEPTIDE1,PEPTIDE4,3:R3-1:R1|PEPTIDE4,PEPTIDE3,1:R2-5:R3$$$V2.0
conjugation yield: 71.9%
final purity (method not given): 97.7%
